Some results were stated once for a whole list of compounds, not compound by compound.
Assay: Stability comparison under severe conditions (0.3% hydrogen peroxide, 80° C., content by HPLC)
Format: physicochemical
Settings: 1 mg/mL in 0.3% hydrogen peroxide, chamber at 80° C.
Protocol: Each of the drugs shown in Table 5 was completely dissolved in a 0.3% hydrogen peroxide solution at a concentration of 1 mg/mL. While storage under stressed conditions at 80° C., changes in the contents of the drugs were monitored. The 0.3% hydrogen peroxide solution is a solution commonly used to quickly determine the stability of drugs and provides stressed conditions for artificial acceleration of the oxidation of the drugs. The content analysis was conducted by HPLC in accordance with the paroxetine content analysis defined in USP.

## paroxetine methanesulfonate
48 hrs, listed as paroxetine methanesulfonate
  Drug content, 48 hrs: ≤ 54%
120 hrs
  Drug content, 120 hrs: ≤ 15%

— patent publication US20060063747A1, “Paroxetine cholate or cholic acid derivative salts, and composition comprising paroxetine and cholic acid or derivative thereof” (priority 2004, published 2006)
